Reference: patent publication US20110034419A1, “Cardioprotective Drugs and Diagnostics for Assessing Risk of Cardiovascular Disease” (priority 2009, published 2011)
Some entries share one result that the patent states for a list of compounds.

Tested on: Erk1/2 activation in HUVECs
Test: Multiplex bead array assay of Erk1/2 phosphorylation
Assay type: cell-based, human
Conditions: 833 nM S1P or 333 μg/ml HDL
Protocol: The effect of S1P and HDL on activation of Erk1/2 (A-D) and Akt (E-H) in HUVECs was determined by multiplex bead array assay. In A-D, the values for the fold difference in Erk1/2 phosphorylation were derived from the level of phosphoErk1/2 fluorescence in S1P or HDL treated cells divided by the level of phosphoErk1/2 fluorescence in control cells. In E-G, the values for the fold increase in Akt phosphorylation were derived from the level of phosphoAkt fluorescence in cells treated with S1P or HDL divided by the level of phosphoAkt fluorescence measured in control cells. […]
In A and B, pertussis toxin (PTX, 100 ng/ml) or the PTX buffer was added to endothelial cell basal medium (EBM) during the final 12 h of serum starvation. […] The graphed values were derived from the level of phosphoErk1/2 or phosphoAkt fluorescence in S1P- or HDL-treated cells divided by the level of phosphoErk1/2 or phosphoAkt fluorescence in BSA treated cells. […]
Approach: A bead-based multiplex assay will be used to determine changes in phosphorylated Erk1/2, phosphorylated Akt, and total Erk and total Akt in endothelial cells in response to treatments with HDLs from dislipidemic subjects and synthetic HDLs containing defined amounts of S1P. […] The cells will be extracted with Bio-Plex cell lysis buffer (Bio-Rad, Hercules, Calif.) and protein concentration determined by Bio-Rad DC Protein Assay (Bio-Rad). […]

Compound: CCCCCCCCCCCCC/C=C/[C@@H](O)[C@@H](N)COP(=O)(O)O [S1P, sphingosine 1-phosphate]
- Time of peak Erk1/2 phosphorylation: 3 to 5 min
